{"source": "PubChem BioAssay AID504808, Drosophila RNAi Screening Center, 2011", "test": "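Fly genes required to hold E2F transcription in check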 (primary screen)", "cells": "Drosophila S2 cells", "knock-down reagent": "long dsRNA against Drosophila genes", "measured": "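Firefly luciferase driven by E2F sites, normalised to Renilla luciferase on the same minimal promoter, measured by plate reader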", "scale": "E2F firefly: higher = more E2F reporter activity; Renilla normaliser: higher = more normaliser reporter signal", "call rule": "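Called active if the normalised E2F reporter went up by over 50%; the cutoff is arbitrary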", "note": "In all, the deposit lists about 21,000 reagents; below is a random part of those with a known target gene and a result. In the full data, 18 (0.084%) were called active. 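Raw counts without plate normalisation, one of two replicates; the ratio scores behind the calls were not deposited.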 Unmarked entries are inactive. The numbers tell different reagents against one gene apart. Reagent sequences are not shown. Not given: the amount of reagent, the time to read-out."}
{"gene knocked down": "B4", "dsRNA no.": 1, "E2F firefly, rep 1": 77044, "Renilla normaliser, rep 1": 3624}
{"gene knocked down": "B4", "dsRNA no.": 2, "E2F firefly, rep 1": 1.13e5, "Renilla normaliser, rep 1": 4723}
{"gene knocked down": "stan (starry night)", "dsRNA no.": 1, "E2F firefly, rep 1": 1.16e5, "Renilla normaliser, rep 1": 3842}
{"gene knocked down": "stan (starry night)", "dsRNA no.": 2, "E2F firefly, rep 1": 1.38e5, "Renilla normaliser, rep 1": 5489}
{"gene knocked down": "Nt5b (5' nucleotidase B)", "dsRNA no.": 1, "E2F firefly, rep 1": 1.70e5, "Renilla normaliser, rep 1": 6382}
{"gene knocked down": "Nt5b (5' nucleotidase B)", "dsRNA no.": 2, "E2F firefly, rep 1": 2.70e5, "Renilla normaliser, rep 1": 7928}
{"gene knocked down": "Nt5b (5' nucleotidase B)", "dsRNA no.": 3, "E2F firefly, rep 1": 2.52e5, "Renilla normaliser, rep 1": 6646}
{"gene knocked down": "Atg8a (Autophagy-related 8a)", "dsRNA no.": 1, "E2F firefly, rep 1": 1.29e5, "Renilla normaliser, rep 1": 6341}
{"gene knocked down": "CG5639", "dsRNA no.": 1, "E2F firefly, rep 1": 1.12e5, "Renilla normaliser, rep 1": 7655}
{"gene knocked down": "Idi (Isopentenyl-diphosphate delta isomerase)", "dsRNA no.": 1, "E2F firefly, rep 1": 73571, "Renilla normaliser, rep 1": 3285}

2 entries from above in another layout.
| gene knocked down | dsRNA no. | E2F firefly, rep 1 | Renilla normaliser, rep 1 |
| --- | --- | --- | --- |
| stan (starry night) | 1 | 1.16e5 | 3842 |
| stan (starry night) | 2 | 1.38e5 | 5489 |

Additional results follow:
{"gene knocked down": "VhaM9.7-b (Vacuolar H[+] ATPase M9.7 subunit b)", "dsRNA no.": 1, "E2F firefly, rep 1": 1.35e5, "Renilla normaliser, rep 1": 7059}
{"gene knocked down": "dbr (debra)", "dsRNA no.": 1, "E2F firefly, rep 1": 74372, "Renilla normaliser, rep 1": 3505}
{"gene knocked down": "nab", "dsRNA no.": 1, "E2F firefly, rep 1": 91647, "Renilla normaliser, rep 1": 4561}
{"gene knocked down": "nab", "dsRNA no.": 2, "E2F firefly, rep 1": 1.09e5, "Renilla normaliser, rep 1": 4335}
{"gene knocked down": "CG6154", "dsRNA no.": 1, "E2F firefly, rep 1": 90081, "Renilla normaliser, rep 1": 4388}
{"gene knocked down": "CG7560", "dsRNA no.": 1, "E2F firefly, rep 1": 1.05e5, "Renilla normaliser, rep 1": 5421}
{"gene knocked down": "shams", "dsRNA no.": 1, "E2F firefly, rep 1": 1.12e5, "Renilla normaliser, rep 1": 5524}
{"gene knocked down": "Ugt302E1 (UDP-glycosyltransferase family 302 member E1)", "dsRNA no.": 1, "E2F firefly, rep 1": 1.36e5, "Renilla normaliser, rep 1": 6984}
{"gene knocked down": "mv (mauve)", "dsRNA no.": 1, "E2F firefly, rep 1": 96999, "Renilla normaliser, rep 1": 4227}
{"gene knocked down": "mv (mauve)", "dsRNA no.": 2, "E2F firefly, rep 1": 94905, "Renilla normaliser, rep 1": 4519}
